The source of these data is the supplement of paper PMC5949888.

± gives the standard deviation of the averaged measurements. Most values lie at the floor of the assay. Slopes are relative: functional sequences can read slightly below zero.

This series deals with Saccharomyces cerevisiae PS128 hsf1 delta, HSF1(1-493) fusion. In words: growth estimate (transactivation domain function in HSF1 fusion, heat-shock survival) (a.u. (slope of normalised read count over time)); higher = stronger growth at 37°C, i.e. more transactivation activity. The conditions noted are these: library: random library.
With SITDSPGKVTLAMGEGPVTA, the growth estimate was under -0.25.

Consider YYDYAVCELVC, for which the growth estimate was under -0.25.

On to LGIGRVEVTTYCSPRTSCSK, for which the growth estimate is under -0.25.

For RRASPAVLRSRCALDSRPYA, the growth estimate was under -0.25.

For GSSLVYNPWG, the growth estimate was under -0.25.

In the case of SGTQHLG, the growth estimate is under -0.25.

In the case of RRSYQCPYRGHQPGFRGRTR, the growth estimate was under -0.25.

RGGS: the growth estimate is under -0.25.

Take TVGLYIARVHE: the growth estimate was under -0.25.

GHKCQDRL: the growth estimate was under -0.25.

MALRADAVLLP: the growth estimate is under -0.25.

With LASRTVQF, the growth estimate was under -0.25.

As for SRITAIRLGNCQATRTSL, the growth estimate is under -0.25.

With CTCDSSSGCCGFLLDP, the growth estimate was under -0.25.

In the case of HSHDRVTRVS, the growth estimate is under -0.25.

For GFGYKDNRFGLTIRMPYGRD, the growth estimate was under -0.25.

Take NESGTARD: the growth estimate is under -0.25.

As for LRSRLRGPHQCPGLTFWIVS, the growth estimate was under -0.25.

Take RWSGRTSK: the growth estimate was under -0.25.

Regarding SSLSHMARLNVSIALGCTYR, the growth estimate is under -0.25.

For HKR, the growth estimate was under -0.25.

GYRS: the growth estimate was under -0.25.

On to RGLCV, for which the growth estimate is -0.203.

As to QWITSCGESLPSCAMHRSAP, the growth estimate is -0.245.

With AVANIINDS, the growth estimate is under -0.25.

As for SIRSTVFSSVRDGHGVEQSR, the growth estimate was under -0.25.

Take SRDITPRLDLDFG: the growth estimate was under -0.25.

On to FVL, for which the growth estimate was under -0.25.

For the substance PEKRGEERPHRRHLSPARYQ, the growth estimate was under -0.25.

GQLGDYGLLAEYGIHE: the growth estimate is under -0.25.

For the substance TSILSLW, the growth estimate is under -0.25.

For the substance CVVVRSGNQSS, the growth estimate was under -0.25.

On to FLRAFRSLYKNEWASHAICV, for which the growth estimate is under -0.25.

In the case of ARRMTETT, the growth estimate was under -0.25.

On to RVPPKVTVAGGNTFPRLSRS, for which the growth estimate was under -0.25.

Turning to KLKIFCGNVIQIGTRAKVWA, the growth estimate is under -0.25.

Regarding PWVIALRTSVCLVAALRL, the growth estimate is under -0.253.

On to TILCLTVKRLTAPSCYSHE, for which the growth estimate was under -0.25.

Turning to KQK, the growth estimate is under -0.25.

Consider GWGTGTCTWLSVFRHSRLVR, for which the growth estimate is under -0.25.

SYDSPSLQCTYNGWKNQFL: the growth estimate was under -0.25.

In the case of GLRGSRDYVDQKSGLPNIIG, the growth estimate is under -0.25.

Consider SLRYRAGINTFTRLLPTILI, for which the growth estimate was under -0.25.

On to TLVMQPIVGIIHL, for which the growth estimate was under -0.25.

For the substance LEERLNGSRQ, the growth estimate is under -0.25.

On to AGRSAHKTVILEKDLARVRL, for which the growth estimate was -0.145.

RTLVASKCRIPLNRYYVVSA: the growth estimate was -0.234.

For STLTDTATSVLVT, the growth estimate was under -0.25.

Consider GIICVTLVAGGRVEWACIGC, for which the growth estimate was under -0.25.

For the substance TLPQKRFRSAAGSTRENFAL, the growth estimate is under -0.25.

Consider DKW, for which the growth estimate was under -0.25.

SLLHTAHNCQNGIRMNLGPA: the growth estimate was under -0.25.

In the case of TQVHAELYWVPIE, the growth estimate was under -0.25.

In the case of RVTESRAGH, the growth estimate was under -0.25.

With TDQGDHR, the growth estimate is under -0.25.

As for STVPL, the growth estimate was under -0.25.

Regarding VCLSGLVLAWAEHVS, the growth estimate was under -0.25.

For DMRWSSC, the growth estimate was under -0.25.

In the case of GYCRPRGARATD, the growth estimate was under -0.25.

On to HPPRLFS, for which the growth estimate was under -0.25.

In the case of SQTTGARRHLCSIRNHSERG, the growth estimate is under -0.25.

In the case of PRNGEGLSRSSTHLTQFSLP, the growth estimate was under -0.25.

As to PDVRVPSYRYKAS, the growth estimate was under -0.25.

Turning to LFRADLIIRQSLEAVKDRL, the growth estimate is under -0.25.

Turning to FLV, the growth estimate is -0.2494 ± 0.001.
